Values from PubChem BioAssay AID504784 (Drosophila RNAi Screening Center, 2011).

Purpose: 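Search for regulators of lipid droplet storage in oleate-fed fly cells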 (primary screen)
System: Drosophila Kc167 embryonic cells
Knock-down reagent: long dsRNA against Drosophila genes, about 250 ng dsRNA per well
Duration: 4 days
Challenge: cells fed 400 µM oleic acid bound to BSA
Measurement: 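Cells imaged and segmented; ratio of lipid droplet area to nuclear area, log-transformed, then normalised as a B-score over the screen; higher means more stored lipid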
Scale: droplet/nuclear area B-score: higher = more stored lipid (overstorage)
The screen tested about 17,000 reagents; this is a random part of those that have a named target and a result. 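Each column is one replicate's B-score; the combined score over replicates was not deposited, so single values may mislead.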 A plus sign joins genes that one reagent is predicted to hit. Further read-outs or replicates are left out here.

Against CG17744 [DRSC10286] the deposit lists droplet/nuclear area B-score, replicate 1 = -1.32.
With knock-down of CG30121 (retired record) [DRSC21481] the results were droplet/nuclear area B-score, replicate 1 = -1.07.
Silencing of Decay [DRSC16930] came out at: droplet/nuclear area B-score, replicate 1 = 1.06.
After knock-down of Rsbp15 [DRSC14176] the results were droplet/nuclear area B-score, replicate 1 = 4.77.
Knock-down of Rok [DRSC20277] came out at: droplet/nuclear area B-score, replicate 1 = -1.82.
Rok [DRSC23348] gave droplet/nuclear area B-score, replicate 1 = 0.0256.
inaE [DRSC19376] showed droplet/nuclear area B-score, replicate 1 = -0.156.
inaE [DRSC19377] gave droplet/nuclear area B-score, replicate 1 = -0.829.
inaE [DRSC19379] scored droplet/nuclear area B-score, replicate 1 = 0.531.
Depletion of inaE [DRSC19726] gave: droplet/nuclear area B-score, replicate 1 = 0.876.
For geko [DRSC10044], the values are droplet/nuclear area B-score, replicate 1 = 0.684.
Knock-down of geko [DRSC10045] gave: droplet/nuclear area B-score, replicate 1 = 0.017.
Knock-down of CG8236 [DRSC16399] came out at: droplet/nuclear area B-score, replicate 1 = 0.376.
With knock-down of CG33464 (retired record) [DRSC22936], the screen gave droplet/nuclear area B-score, replicate 1 = -1.08.

Individual results from the entries so far:
Decay [DRSC16930], droplet/nuclear area B-score, replicate 1 → 1.06
For “droplet/nuclear area B-score, replicate 1”, inaE [DRSC19379] shows 0.531
Under “droplet/nuclear area B-score, replicate 1”, Rok [DRSC23348] is entered as 0.0256
Entry of geko [DRSC10044] in “droplet/nuclear area B-score, replicate 1”: 0.684

Next records follow.
With knock-down of CG18273 [DRSC18150], the screen gave droplet/nuclear area B-score, replicate 1 = -0.539.
With knock-down of CG18273 [DRSC18505], the screen gave droplet/nuclear area B-score, replicate 1 = -2.69.
CG17770 + Acam [DRSC14110] scored droplet/nuclear area B-score, replicate 1 = -1.24.
Silencing of CG17770 + Acam [DRSC15264] gave: droplet/nuclear area B-score, replicate 1 = 1.48.
CG18048 [DRSC12573] gave droplet/nuclear area B-score, replicate 1 = -0.459.
For Gbeta5 [DRSC17754], the entry reads droplet/nuclear area B-score, replicate 1 = 0.283.
After knock-down of Gss1 + Gss2 [DRSC20008], the screen gave droplet/nuclear area B-score, replicate 1 = 0.594.
Depletion of Gss1 + Gss2 [DRSC21539] came out at: droplet/nuclear area B-score, replicate 1 = -1.18.
For CG5455 [DRSC15805] the deposit lists droplet/nuclear area B-score, replicate 1 = -2.92.
After knock-down of CG15729 (retired record) [DRSC19695] the results were droplet/nuclear area B-score, replicate 1 = -0.588.
After knock-down of CG9928 [DRSC03274], the screen gave droplet/nuclear area B-score, replicate 1 = -0.0786.
Silencing of CG11899 [DRSC16656] resulted in: droplet/nuclear area B-score, replicate 1 = 0.797.
Knock-down of CG8180 [DRSC07092] gave: droplet/nuclear area B-score, replicate 1 = -0.779.
Knock-down of CG8180 [DRSC07093] gave: droplet/nuclear area B-score, replicate 1 = -0.651.
mTor [DRSC02811] gave droplet/nuclear area B-score, replicate 1 = -0.519.
Hsp23 [DRSC11188] showed droplet/nuclear area B-score, replicate 1 = 0.628.
After knock-down of Mt2 [DRSC03374] the results were droplet/nuclear area B-score, replicate 1 = 0.0398.
For SCAP [DRSC04869] the deposit lists droplet/nuclear area B-score, replicate 1 = 2.25.
For SCAP [DRSC04907], the entry reads droplet/nuclear area B-score, replicate 1 = 3.15.
For CG6592 [DRSC10669], the entry reads droplet/nuclear area B-score, replicate 1 = 0.554.
With knock-down of Tmf [DRSC18368], the record shows droplet/nuclear area B-score, replicate 1 = -0.856.
Against CaMKI [DRSC17162] the deposit lists droplet/nuclear area B-score, replicate 1 = 0.235.
For sphinx2 [DRSC22188] the deposit lists droplet/nuclear area B-score, replicate 1 = -0.173.
sNPF-R [DRSC10836] gave droplet/nuclear area B-score, replicate 1 = -1.51.
Knock-down of CG12723 [DRSC19499] gave: droplet/nuclear area B-score, replicate 1 = -1.64.
With knock-down of Strump [DRSC09872], the record shows droplet/nuclear area B-score, replicate 1 = -0.856.
